Assay [1] concerns the target recombinant Plasmodium vivax apical membrane antigen 1 ectodomain (rPvAMA1) (Plasmodium vivax). Kind of assay: far-Western, overlay or dot blot; Western blot binding assay: 10 ug rPvAMA1 run on non-reducing 12% SDS-PAGE, blotted on nitrocellulose strips, probed with ~10^9 phage particles; HRP anti-M13 antibody, Opti-4CN; both purified. On the technique in general: In western blotting, separated proteins are transferred to a membrane and probed.

The target is the same in assay [2]. Kind of assay: phage display biopanning; three rounds on refolded rPvAMA1 (50 ug) coated directly on a 96-well plate; Ph.D.-12 library (~10^11 particles) in TBST, 1 h room temperature; elution with 0.2 M glycine-HCl pH 2.2; clones sequenced after round 3; both purified.

No constants are given. Whether binding was seen depends on the method and setting. A result given as binding can be weak or reduced; the word gives no strength.

B1: PdV1 phage-displayed dodecapeptide (peptide)
peptide: DLTFTVNPLSKA
Take B1: the binding entry in assay [1] and in assay [2] was “binds” each time.

B2: PdV2 phage-displayed dodecapeptide (peptide)
peptide: WHWSWWNPNQLT
On to B2, for which the binding entry in assay [1] is listed as “binds weakly”; in assay [2], “binds”.

B3: PdV3 phage-displayed dodecapeptide (peptide)
peptide: TSVSYINNRHNL
For B3, the binding entry in assay [1] is listed as “binds weakly”; in assay [2], “binds”.

Values taken from article PMC5600724.
